According to PMC11898277:
No constants are given. Whether binding was seen depends on the method and setting. Binding seen in cells or lysates may run through a third protein. These calls come from enrichment with a bait or labelling near it, and not all partners need be listed.

Sequences of proteins named here, by UniProt entry; tags and fusion partners are left off. Residues count along the entry.
UniProt P29595, residues 1-76: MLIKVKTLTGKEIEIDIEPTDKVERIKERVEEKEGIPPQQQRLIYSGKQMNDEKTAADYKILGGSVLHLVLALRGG
UniProt Q80TT8: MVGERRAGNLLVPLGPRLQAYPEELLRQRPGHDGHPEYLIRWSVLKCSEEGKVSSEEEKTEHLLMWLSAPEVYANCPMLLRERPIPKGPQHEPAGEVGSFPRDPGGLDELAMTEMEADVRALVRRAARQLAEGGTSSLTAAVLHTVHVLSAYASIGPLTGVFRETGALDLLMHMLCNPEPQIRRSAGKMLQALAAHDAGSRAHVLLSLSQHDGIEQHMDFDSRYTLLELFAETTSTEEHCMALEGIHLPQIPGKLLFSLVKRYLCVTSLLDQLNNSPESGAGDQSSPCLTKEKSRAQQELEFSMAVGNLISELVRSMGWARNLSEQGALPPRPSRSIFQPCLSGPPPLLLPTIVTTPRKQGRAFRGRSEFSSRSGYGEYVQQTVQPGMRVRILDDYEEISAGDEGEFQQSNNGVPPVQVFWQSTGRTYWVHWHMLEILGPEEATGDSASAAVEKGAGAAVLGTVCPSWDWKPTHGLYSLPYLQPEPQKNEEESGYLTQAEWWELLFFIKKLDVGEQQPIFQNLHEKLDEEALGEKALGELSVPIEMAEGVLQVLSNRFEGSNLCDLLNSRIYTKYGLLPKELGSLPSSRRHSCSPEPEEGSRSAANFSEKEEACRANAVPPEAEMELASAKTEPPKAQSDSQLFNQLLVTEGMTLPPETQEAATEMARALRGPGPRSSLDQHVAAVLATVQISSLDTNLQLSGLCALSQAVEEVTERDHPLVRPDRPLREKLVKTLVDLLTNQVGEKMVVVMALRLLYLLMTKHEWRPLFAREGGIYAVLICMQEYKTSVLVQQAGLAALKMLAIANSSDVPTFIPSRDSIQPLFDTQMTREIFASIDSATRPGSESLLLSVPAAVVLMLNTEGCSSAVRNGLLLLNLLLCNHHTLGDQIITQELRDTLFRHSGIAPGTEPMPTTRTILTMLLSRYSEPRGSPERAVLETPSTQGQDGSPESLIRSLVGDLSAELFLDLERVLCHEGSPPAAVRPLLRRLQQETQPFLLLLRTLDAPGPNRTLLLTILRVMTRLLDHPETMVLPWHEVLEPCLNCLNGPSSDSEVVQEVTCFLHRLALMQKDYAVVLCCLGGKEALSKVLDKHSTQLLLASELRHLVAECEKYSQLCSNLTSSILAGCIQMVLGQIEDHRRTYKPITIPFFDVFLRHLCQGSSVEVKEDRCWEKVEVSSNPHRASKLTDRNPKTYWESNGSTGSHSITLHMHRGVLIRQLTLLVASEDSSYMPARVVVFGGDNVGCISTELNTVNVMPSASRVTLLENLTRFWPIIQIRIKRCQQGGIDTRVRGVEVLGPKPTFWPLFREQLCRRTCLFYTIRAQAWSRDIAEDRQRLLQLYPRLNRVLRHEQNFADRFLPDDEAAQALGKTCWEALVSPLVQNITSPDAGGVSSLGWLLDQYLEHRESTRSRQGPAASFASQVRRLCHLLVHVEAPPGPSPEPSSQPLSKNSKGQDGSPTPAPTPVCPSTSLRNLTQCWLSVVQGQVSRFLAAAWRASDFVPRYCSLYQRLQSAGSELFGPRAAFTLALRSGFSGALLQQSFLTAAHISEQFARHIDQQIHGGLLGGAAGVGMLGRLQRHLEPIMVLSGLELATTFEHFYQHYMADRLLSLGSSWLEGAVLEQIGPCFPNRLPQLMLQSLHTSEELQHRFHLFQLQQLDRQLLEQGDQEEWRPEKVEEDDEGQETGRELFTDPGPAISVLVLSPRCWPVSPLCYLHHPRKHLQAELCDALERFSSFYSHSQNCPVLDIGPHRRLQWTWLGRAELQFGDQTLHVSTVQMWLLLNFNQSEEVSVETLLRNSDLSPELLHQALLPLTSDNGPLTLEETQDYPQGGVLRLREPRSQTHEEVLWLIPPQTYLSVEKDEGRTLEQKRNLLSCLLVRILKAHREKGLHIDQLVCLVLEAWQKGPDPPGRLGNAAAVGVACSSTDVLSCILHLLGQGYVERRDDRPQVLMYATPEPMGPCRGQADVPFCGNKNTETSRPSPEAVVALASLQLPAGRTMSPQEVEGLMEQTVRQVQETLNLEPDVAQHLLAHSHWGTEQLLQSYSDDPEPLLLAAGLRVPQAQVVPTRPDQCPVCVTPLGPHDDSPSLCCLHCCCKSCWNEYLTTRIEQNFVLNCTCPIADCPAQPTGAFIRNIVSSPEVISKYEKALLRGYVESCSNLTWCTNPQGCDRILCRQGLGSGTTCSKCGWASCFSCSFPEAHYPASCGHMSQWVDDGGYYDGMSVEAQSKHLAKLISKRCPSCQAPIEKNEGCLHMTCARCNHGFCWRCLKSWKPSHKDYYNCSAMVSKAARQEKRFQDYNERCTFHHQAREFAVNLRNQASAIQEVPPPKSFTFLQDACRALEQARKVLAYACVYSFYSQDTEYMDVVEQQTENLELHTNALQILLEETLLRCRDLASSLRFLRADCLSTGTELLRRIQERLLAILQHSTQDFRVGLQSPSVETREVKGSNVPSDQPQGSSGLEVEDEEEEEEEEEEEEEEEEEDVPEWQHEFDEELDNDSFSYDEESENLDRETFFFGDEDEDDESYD
UniProt Q8VE73: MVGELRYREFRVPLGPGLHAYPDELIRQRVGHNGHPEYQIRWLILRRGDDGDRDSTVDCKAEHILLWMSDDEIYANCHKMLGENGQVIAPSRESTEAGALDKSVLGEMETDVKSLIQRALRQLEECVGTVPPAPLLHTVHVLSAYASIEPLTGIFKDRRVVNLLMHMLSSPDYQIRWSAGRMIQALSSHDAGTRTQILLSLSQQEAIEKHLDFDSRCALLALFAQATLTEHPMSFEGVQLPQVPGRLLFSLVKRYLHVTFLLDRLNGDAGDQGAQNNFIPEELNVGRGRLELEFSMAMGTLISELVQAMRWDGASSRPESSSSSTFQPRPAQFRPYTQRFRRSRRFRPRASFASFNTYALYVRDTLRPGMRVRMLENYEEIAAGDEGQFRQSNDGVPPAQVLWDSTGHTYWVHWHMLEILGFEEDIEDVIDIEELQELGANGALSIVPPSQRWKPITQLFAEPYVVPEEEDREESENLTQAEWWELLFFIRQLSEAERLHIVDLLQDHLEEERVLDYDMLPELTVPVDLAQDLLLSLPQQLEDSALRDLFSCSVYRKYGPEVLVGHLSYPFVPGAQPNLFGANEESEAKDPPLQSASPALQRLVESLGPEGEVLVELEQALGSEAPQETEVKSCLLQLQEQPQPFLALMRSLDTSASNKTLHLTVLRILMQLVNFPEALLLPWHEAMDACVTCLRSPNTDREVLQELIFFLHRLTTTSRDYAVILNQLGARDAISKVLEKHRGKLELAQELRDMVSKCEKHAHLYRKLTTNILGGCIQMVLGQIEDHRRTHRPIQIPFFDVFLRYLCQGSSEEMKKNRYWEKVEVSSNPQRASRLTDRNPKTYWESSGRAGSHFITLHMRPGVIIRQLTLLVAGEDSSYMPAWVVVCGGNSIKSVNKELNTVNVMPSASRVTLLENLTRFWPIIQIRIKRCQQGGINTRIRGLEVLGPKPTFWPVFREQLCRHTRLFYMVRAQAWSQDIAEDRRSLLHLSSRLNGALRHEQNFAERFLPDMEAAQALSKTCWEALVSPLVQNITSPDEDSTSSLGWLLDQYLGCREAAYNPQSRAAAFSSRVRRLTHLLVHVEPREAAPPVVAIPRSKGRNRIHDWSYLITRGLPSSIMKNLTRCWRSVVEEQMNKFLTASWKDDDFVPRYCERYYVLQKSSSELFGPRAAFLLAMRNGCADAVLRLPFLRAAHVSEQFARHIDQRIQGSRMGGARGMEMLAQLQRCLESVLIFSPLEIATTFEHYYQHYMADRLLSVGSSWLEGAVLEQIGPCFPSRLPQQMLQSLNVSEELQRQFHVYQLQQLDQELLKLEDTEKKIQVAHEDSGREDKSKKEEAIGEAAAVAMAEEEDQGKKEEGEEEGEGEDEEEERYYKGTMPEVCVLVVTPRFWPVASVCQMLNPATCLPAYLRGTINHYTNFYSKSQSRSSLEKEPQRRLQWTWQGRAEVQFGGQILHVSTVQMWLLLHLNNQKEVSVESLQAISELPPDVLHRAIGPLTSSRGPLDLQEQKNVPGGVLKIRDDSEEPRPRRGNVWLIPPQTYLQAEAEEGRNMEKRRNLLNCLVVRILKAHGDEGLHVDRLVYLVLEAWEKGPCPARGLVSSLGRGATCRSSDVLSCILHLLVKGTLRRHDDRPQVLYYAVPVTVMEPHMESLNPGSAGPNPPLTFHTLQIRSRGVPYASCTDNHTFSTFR

Target: Neural precursor cell-expressed developmentally down-regulated 8 (NEDD8) (mouse (endogenous in testis)) (UniProt P29595)
Test: affinity purification with mass spectrometry; lysate of 16 dpp mouse testes in IP lysis buffer; NEDD8 antibody or non-specific IgG, 3 h at 4 C, magnetic Protein A beads overnight at 4 C; LC-MS/MS of the precipitate

| binding | Substance |
| --- | --- |
| binds | CUL9 (from UniProt Q80TT8 1-2530) |
| binds | CUL7 (from UniProt Q8VE73 1-1689) |
